Assay: Volatility of perfuming compounds (Tables 4 to 10), with top/middle/bottom note type
Format: physicochemical
Procedure: In some aspects, the first perfume accord comprises perfuming compounds having a volatility ranging from 70,000 to 100 μg/l in air. In some aspects, perfuming compounds having a volatility ranging from 70,000 to 100 μg/l in air are referred to as “top notes”.
In some aspects, the second perfume accord comprises perfuming compounds having a volatility ranging from 99 to 50 μg/l in air. In some aspects, perfuming compounds having a volatility ranging from 99 to 50 μg/l in air are referred to as “middle notes”.
In some aspects, the third perfume accord comprises perfuming compounds having a volatility ranging from 49 to 0.1 μg/l in air. In some aspects, perfuming compounds having a volatility ranging from 49 to 0.1 μg/l in air are referred to as “bottom notes”.
Tables 4 to 10 describe top, middle and bottom note perfuming compounds for watery, green, fruity, citrus, sweet, gourmand and woody notes respectively.

CCCCCCCC1CCC(=O)O1 (racemic) [(+−)-5-heptyldihydro-2(3H)-furanone]
Type: Bottom
Volatility: 3.67 μg/l air

Source: patent publication US20240301319A1, “PERFUMING COMPOSITIONS” (FIRMNICH SA, priority 2017, published 2024)
